# Values from PubChem BioAssay AID602196 (INSERM, 2012).
# Purpose: 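Modifiers of cisplatin sensitivity in A549 cells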
# System: human A549 lung cancer cells
# Reagent: siRNA pair against human genes
# Duration: 48 h transfection before cisplatin; time from cisplatin to read-out not stated
# Conditions: cisplatin at a dose killing half of control-siRNA cells; exact dose and duration not given
# Measured: 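Cisplatin cell death as a shift from the 50% death seen with control siRNA; siRNAs toxic or growth-blocking alone scored 0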
# Reading the numbers: two-siRNA summed score (-2 to +2): higher = both siRNAs protect from cisplatin killing; -2 means both sensitise; mean protection from cisplatin (shift in death): higher = protection from cisplatin killing
# Hit rule: 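siRNAs harmful alone (LDH or WST-1) get 0; others get +1 for less and -1 for more cisplatin killing; genes are active when the two siRNAs give the same sign, summing to ±2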
# Meaning of the calls: active = both siRNAs shift cisplatin killing the same way; inactive = no consistent shift, or siRNA harmful alone
# The deposit covers about 23,000 reagents; shown is a part drawn at random. 455 of them (2%) were called active. 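Active includes both protection and sensitisation; some change values fall well beyond the stated -50 to +50 range.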 Not all columns of the deposit are shown. Not given: the amount of reagent.
target,PubChem SID,two-siRNA summed score (-2 to +2),mean protection from cisplatin (shift in death) (%),Outcome
OR51A2,SID131513940,0,7.2,inactive
CCDC50,SID131521332,1,13,inactive
TAFA5,SID131518744,0,25.7,inactive
TLK1,SID131521785,1,14.9,inactive
ZDHHC3,SID131502820,0,-27.8,inactive
SEZ6,SID131515352,0,9,inactive
SLC12A8,SID131501082,-1,-12.5,inactive
CD274,SID131500544,-1,-22.2,inactive
OR8G5,SID131502088,-1,-5.4,inactive
PRNT,SID131511175,0,4.1,inactive
PMS2,SID131513268,0,6.4,inactive
FXYD5,SID131504774,0,-4.5,inactive
GJD3,SID131507707,0,0.2,inactive
CDK8,SID131507297,0,-0.3,inactive
NCSTN,SID131502938,0,-17.8,inactive
GPKOW,SID131515146,0,8.7,inactive
ZNF426,SID131516374,0,10.7,inactive
LOC401121,SID131506638,0,-1.2,inactive
MGC10334,SID131513570,0,6.7,inactive
C14orf180,SID131521589,1,14.1,inactive
ABCC12,SID131517480,0,13.6,inactive
HLA-DMA,SID131501769,-1,-7.5,inactive
THBS2,SID131515051,0,8.6,inactive
PRPF3,SID131513891,0,7.1,inactive
TREM1,SID131503317,0,-11.1,inactive
EIF2AK4,SID131519249,1,4.1,inactive
CTSD,SID131522418,1,18.4,inactive
LOC441491,SID131507225,0,-0.4,inactive
UNC5B,SID131520459,1,10,inactive
TMEM69,SID131516166,0,10.4,inactive
DPEP2,SID131522630,1,20.9,inactive
RTEL1,SID131500440,-1,-30.1,inactive
MAL2,SID131503475,0,-9.8,inactive
LOC392501,SID131518572,0,21.8,inactive
FLT3LG,SID131517920,0,15.4,inactive
SLC10A7,SID131514693,0,8.1,inactive
FYCO1,SID131511145,0,4,inactive
TRMT61A,SID131522796,1,24.6,inactive
SLC35D4,SID131506530,0,-1.4,inactive
HDAC3,SID131514523,0,7.9,inactive
APBB1IP,SID131508888,0,1.6,inactive
C22orf31,SID131507517,0,0,inactive
ECEL1,SID131500923,-1,-14.1,inactive
LOC200230,SID131502728,-1,4.1,inactive
KLHL18,SID131510056,0,2.8,inactive
TANC1,SID131512120,0,5.1,inactive
CAVIN2,SID131515169,0,8.8,inactive
PHF13,SID131500978,-1,-13.7,inactive
MTNR1B,SID131512976,0,6.1,inactive
LOC339977,SID131507900,0,0.4,inactive
LOC196266,SID131522913,1,44.2,inactive
CD276,SID131502931,0,-18.1,inactive
FIZ1,SID131504399,0,-5.5,inactive
ZBTB26,SID131506169,0,-1.9,inactive
KLHL25,SID131503684,0,-8.5,inactive
CPAMD8,SID131515923,0,9.9,inactive
NKIRAS2,SID131517564,0,13.9,inactive

3 entries from above in another layout.
| target | PubChem SID | two-siRNA summed score (-2 to +2) | mean protection from cisplatin (shift in death) (%) | Outcome |
| --- | --- | --- | --- | --- |
| FLT3LG | SID131517920 | 0 | 15.4 | inactive |
| SLC10A7 | SID131514693 | 0 | 8.1 | inactive |
| FYCO1 | SID131511145 | 0 | 4 | inactive |
